These results are taken from publication PMC11207971.

Results are given in words; binding and its absence hold for the method and conditions named. In cells and extracts the contact can be indirect. Binding calls can cover weak binding; strength is not graded here.

For experiment [1], the target named is LHCA3 (Chlamydomonas reinhardtii (endogenous in thylakoids)). Put plainly: cross-linking; DSS (DSS-H12 and DSS-D12, equimolar) added to isolated thylakoid membranes of wild-type 4a+ (1.5 mg chl/mL, 5 mM HEPES-KOH pH 7.5), 30 min at room temperature in the dark, quenched with Tris-HCl; then α-DDM solubilization, sucrose density gradient, SDS-PAGE, in-gel digestion …; crosslinked peptides found with XiSearch, MaxQuant, Merox, Mass Spec Studio, FDR 0.05.

Experiment [2] has as its target LHCA5 (Chlamydomonas reinhardtii (endogenous in thylakoids)). The description is as above.

B1: LHCSR3 (protein, UniProt P0DO18 46-259)
chain: EDVFAYTKNLPGVTAPFEGVFDPAGFLATASIKDVRRWRESEITHGRVAMLAALGFVVGEQLQDFPLFFNWDGRVSGPAIYHFQQIGQGFWEPLLIAIGVAESYRVAVGWATPTGTGFNSLKDDYEPGDLGFDPLGLKPTDPEELKVMQTKELNNGRLAMIAIAAFVAQELVEQTEIFEHLALRFEKEAILELDDIERDLGLPVTPLPDNLKSL
For B1, the binding entry in experiment [1] and in experiment [2] was “binds” in each case.

B2: PSAK (protein, UniProt P14225 27-113)
chain: DGFIGSSTNLIMVASTTATLAAARFGLAPTVKKNTTAGLKLVDSKNSAGVISNDPAGFTIVDVLAMGAAGHGLGVGIVLGLKGIGAL
B2: the binding entry in experiment [1] is on record as “binds”.
